The target of assay [1] is T1, GSTEhRab21 (E. histolytica) (UniProt Q9BLF0).
T1 sequence: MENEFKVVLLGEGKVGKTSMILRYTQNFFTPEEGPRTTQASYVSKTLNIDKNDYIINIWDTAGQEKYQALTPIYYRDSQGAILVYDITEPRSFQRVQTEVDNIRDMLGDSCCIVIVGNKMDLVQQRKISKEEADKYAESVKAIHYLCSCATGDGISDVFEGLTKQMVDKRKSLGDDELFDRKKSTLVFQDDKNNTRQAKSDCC
The assay is described as follows: pull-down; both purified.

Chains of the proteins cited; added tags and fusions are not shown. Lines headed by an entry give the natural chain unless they say otherwise; changes in a name come on top.
UniProt C4M344: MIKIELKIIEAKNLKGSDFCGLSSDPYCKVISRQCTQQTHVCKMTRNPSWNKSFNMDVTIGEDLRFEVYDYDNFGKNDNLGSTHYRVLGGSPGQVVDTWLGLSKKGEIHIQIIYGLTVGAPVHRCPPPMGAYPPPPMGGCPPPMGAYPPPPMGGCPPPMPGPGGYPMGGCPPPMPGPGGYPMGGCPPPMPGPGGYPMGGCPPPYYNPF

Assay [2] concerns the target MBPEhC2BHis (E. histolytica) (UniProt C4M344). The assay is described as follows: condition: only EhRab21 loaded with GDP (76 μM into 10 μM); ITC; both purified.

No constants are given. Whether binding was seen depends on the method and setting. For part of these data: A result given as binding can be weak or reduced; the word gives no strength. Tags and fused reporters may be left off the sequences shown.

Take “EhC2A (C2 domain) (E. histolytica) (domain or fragment)”: in assay [1], the binding result is given as “no binding”.

For the molecule MBPEhC2BHis (from UniProt C4M344), the binding entry in assay [1] was “binds”.

B1: GSTEhRab21 (enzyme)
chain: MENEFKVVLLGEGKVGKTSMILRYTQNFFTPEEGPRTTQASYVSKTLNIDKNDYIINIWDTAGQEKYQALTPIYYRDSQGAILVYDITEPRSFQRVQTEVDNIRDMLGDSCCIVIVGNKMDLVQQRKISKEEADKYAESVKAIHYLCSCATGDGISDVFEGLTKQMVDKRKSLGDDELFDRKKSTLVFQDDKNNTRQAKSDCC
notes: also called GppNHp-GSTEhRab21; GDP-GSTEhRab21; source: recombinant, purified
B1: in assay [2], the binding result is given as “no binding”.

Source of the values: publication PMC7197785 (PLoS Pathogens, 2020).
